Consider eleven targets from the supplement of paper PMC12819154, “High-throughput peptide-centric local stability assay extends protein–ligand identification to membrane proteins, tissues and bacteria” (Nature Structural & Molecular Biology, 2025).

Protein sequences, listed by entry. Tags and fused reporters are not part of them. Lines headed by an entry give the natural chain unless they say otherwise; changes in a name come on top.
UniProt Q9UNL2: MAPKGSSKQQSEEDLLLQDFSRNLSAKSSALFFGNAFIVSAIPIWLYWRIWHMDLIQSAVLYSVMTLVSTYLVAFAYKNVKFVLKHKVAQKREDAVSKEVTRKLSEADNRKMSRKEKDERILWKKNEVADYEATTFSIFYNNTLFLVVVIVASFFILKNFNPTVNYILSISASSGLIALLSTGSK
UniProt Q9UJN7: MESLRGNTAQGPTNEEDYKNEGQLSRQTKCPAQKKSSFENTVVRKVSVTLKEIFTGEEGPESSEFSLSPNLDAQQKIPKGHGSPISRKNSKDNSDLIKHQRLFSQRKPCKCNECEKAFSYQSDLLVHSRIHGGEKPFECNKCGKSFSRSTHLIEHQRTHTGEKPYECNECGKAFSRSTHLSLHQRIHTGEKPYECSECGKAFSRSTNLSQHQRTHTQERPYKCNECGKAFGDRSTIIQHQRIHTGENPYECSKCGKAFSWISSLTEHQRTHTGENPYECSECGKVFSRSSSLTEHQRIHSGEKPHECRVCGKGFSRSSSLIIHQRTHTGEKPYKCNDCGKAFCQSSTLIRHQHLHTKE
UniProt Q9UN37: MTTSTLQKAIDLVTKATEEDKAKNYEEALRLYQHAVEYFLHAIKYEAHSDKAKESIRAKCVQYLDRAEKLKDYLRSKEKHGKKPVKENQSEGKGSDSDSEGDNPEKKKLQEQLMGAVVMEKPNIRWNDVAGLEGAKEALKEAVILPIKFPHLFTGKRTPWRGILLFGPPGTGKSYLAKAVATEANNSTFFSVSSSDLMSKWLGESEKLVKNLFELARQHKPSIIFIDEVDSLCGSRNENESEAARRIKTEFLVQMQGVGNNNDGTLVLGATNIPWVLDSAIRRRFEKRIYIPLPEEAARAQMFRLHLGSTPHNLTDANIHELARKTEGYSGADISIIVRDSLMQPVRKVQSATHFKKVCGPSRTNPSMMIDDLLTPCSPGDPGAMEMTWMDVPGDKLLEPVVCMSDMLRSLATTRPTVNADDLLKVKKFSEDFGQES
UniProt Q9UPG8: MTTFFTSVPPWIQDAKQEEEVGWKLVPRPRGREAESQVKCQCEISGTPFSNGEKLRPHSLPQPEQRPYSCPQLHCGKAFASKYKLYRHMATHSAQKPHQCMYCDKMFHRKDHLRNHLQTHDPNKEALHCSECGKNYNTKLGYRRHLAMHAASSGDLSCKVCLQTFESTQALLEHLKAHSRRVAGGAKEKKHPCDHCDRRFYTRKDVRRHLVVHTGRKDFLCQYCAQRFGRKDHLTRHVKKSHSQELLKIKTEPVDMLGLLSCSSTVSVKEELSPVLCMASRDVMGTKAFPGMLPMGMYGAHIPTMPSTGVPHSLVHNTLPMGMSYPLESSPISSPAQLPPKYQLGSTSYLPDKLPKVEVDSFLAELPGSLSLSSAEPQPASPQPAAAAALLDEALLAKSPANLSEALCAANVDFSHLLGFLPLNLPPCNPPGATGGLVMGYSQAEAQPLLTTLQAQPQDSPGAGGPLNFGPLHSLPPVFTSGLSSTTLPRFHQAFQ
UniProt Q9ULX6: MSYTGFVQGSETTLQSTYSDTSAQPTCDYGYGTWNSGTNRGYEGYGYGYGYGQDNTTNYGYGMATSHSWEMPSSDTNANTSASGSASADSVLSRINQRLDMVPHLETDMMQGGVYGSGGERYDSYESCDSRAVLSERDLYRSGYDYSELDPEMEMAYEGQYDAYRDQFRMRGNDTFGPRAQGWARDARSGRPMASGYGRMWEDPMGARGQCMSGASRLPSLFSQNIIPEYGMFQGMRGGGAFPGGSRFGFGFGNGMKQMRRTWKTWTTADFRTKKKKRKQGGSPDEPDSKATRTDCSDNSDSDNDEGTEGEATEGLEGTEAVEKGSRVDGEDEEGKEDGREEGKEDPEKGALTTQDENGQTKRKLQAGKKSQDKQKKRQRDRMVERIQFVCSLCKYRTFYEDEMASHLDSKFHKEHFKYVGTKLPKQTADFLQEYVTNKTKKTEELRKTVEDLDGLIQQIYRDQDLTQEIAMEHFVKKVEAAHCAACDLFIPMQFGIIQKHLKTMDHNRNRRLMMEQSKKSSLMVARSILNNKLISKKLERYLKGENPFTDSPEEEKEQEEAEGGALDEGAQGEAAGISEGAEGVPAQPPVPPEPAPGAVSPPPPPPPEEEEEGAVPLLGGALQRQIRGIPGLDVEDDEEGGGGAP
UniProt Q9Y263: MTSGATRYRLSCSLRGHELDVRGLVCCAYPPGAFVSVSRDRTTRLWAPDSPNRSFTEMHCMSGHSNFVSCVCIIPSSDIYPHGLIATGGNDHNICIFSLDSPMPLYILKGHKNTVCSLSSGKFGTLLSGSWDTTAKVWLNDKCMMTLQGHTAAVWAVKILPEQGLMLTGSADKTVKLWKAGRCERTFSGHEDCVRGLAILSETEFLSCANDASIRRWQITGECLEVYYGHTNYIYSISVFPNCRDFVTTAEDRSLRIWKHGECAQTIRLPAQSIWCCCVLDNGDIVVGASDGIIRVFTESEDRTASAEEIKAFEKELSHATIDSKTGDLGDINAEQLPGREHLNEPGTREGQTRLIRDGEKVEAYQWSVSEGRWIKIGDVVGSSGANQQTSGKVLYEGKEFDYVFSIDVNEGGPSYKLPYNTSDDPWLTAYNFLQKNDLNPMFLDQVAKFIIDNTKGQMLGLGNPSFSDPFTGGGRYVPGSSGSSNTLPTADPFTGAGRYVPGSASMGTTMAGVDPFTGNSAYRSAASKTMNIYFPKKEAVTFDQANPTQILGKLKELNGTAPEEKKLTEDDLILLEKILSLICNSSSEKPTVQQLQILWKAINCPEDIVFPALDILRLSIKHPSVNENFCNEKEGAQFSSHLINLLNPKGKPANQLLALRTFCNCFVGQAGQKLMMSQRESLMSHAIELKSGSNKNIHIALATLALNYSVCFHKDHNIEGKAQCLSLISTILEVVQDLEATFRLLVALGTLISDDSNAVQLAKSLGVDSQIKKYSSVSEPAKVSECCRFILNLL
UniProt Q9UIF9: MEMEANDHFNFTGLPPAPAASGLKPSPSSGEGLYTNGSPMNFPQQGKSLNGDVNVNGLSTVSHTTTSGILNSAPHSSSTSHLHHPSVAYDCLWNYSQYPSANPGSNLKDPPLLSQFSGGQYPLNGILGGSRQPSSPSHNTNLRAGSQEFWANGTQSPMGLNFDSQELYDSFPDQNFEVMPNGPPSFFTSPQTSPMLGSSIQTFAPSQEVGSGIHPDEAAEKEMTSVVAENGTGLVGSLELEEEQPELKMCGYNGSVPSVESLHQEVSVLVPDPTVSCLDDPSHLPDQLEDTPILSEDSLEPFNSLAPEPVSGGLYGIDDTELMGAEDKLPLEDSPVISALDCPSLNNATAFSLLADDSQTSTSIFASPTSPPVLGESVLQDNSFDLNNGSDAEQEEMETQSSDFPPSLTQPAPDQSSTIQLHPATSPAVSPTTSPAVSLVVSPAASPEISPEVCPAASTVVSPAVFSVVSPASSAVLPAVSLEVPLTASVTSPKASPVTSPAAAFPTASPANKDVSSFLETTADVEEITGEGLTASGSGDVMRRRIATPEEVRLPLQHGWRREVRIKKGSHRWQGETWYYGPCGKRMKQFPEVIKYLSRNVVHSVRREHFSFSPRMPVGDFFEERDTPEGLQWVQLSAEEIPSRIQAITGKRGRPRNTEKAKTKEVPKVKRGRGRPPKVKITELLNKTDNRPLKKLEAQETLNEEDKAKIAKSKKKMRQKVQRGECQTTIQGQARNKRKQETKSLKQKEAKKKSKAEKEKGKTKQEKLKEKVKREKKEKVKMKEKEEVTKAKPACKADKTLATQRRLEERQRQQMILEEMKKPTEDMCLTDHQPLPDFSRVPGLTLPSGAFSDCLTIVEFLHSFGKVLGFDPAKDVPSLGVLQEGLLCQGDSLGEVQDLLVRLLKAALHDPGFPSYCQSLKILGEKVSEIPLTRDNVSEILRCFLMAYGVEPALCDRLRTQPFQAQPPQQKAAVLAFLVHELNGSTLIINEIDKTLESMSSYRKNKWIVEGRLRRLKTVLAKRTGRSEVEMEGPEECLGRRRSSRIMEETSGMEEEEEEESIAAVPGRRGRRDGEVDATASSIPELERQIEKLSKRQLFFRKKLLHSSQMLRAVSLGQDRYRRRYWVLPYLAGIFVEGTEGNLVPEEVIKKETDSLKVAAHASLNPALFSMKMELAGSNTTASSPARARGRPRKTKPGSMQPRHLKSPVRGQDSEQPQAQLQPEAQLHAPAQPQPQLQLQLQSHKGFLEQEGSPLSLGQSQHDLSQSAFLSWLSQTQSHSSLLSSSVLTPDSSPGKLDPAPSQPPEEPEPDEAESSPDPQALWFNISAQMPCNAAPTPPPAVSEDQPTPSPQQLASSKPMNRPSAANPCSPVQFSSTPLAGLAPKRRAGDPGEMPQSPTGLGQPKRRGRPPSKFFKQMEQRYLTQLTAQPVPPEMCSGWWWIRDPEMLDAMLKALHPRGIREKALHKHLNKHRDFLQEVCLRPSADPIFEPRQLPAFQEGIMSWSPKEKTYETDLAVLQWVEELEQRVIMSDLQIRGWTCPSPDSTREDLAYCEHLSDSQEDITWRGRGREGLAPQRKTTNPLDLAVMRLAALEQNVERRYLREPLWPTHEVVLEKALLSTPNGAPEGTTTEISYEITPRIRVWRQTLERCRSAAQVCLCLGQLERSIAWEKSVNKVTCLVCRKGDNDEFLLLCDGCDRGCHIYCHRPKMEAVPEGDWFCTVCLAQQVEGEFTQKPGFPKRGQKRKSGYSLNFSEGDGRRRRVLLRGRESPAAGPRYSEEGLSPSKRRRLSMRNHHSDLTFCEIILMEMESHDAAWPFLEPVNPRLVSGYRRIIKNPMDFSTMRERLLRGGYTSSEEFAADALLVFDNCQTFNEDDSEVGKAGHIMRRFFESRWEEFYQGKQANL
UniProt Q9UPS8: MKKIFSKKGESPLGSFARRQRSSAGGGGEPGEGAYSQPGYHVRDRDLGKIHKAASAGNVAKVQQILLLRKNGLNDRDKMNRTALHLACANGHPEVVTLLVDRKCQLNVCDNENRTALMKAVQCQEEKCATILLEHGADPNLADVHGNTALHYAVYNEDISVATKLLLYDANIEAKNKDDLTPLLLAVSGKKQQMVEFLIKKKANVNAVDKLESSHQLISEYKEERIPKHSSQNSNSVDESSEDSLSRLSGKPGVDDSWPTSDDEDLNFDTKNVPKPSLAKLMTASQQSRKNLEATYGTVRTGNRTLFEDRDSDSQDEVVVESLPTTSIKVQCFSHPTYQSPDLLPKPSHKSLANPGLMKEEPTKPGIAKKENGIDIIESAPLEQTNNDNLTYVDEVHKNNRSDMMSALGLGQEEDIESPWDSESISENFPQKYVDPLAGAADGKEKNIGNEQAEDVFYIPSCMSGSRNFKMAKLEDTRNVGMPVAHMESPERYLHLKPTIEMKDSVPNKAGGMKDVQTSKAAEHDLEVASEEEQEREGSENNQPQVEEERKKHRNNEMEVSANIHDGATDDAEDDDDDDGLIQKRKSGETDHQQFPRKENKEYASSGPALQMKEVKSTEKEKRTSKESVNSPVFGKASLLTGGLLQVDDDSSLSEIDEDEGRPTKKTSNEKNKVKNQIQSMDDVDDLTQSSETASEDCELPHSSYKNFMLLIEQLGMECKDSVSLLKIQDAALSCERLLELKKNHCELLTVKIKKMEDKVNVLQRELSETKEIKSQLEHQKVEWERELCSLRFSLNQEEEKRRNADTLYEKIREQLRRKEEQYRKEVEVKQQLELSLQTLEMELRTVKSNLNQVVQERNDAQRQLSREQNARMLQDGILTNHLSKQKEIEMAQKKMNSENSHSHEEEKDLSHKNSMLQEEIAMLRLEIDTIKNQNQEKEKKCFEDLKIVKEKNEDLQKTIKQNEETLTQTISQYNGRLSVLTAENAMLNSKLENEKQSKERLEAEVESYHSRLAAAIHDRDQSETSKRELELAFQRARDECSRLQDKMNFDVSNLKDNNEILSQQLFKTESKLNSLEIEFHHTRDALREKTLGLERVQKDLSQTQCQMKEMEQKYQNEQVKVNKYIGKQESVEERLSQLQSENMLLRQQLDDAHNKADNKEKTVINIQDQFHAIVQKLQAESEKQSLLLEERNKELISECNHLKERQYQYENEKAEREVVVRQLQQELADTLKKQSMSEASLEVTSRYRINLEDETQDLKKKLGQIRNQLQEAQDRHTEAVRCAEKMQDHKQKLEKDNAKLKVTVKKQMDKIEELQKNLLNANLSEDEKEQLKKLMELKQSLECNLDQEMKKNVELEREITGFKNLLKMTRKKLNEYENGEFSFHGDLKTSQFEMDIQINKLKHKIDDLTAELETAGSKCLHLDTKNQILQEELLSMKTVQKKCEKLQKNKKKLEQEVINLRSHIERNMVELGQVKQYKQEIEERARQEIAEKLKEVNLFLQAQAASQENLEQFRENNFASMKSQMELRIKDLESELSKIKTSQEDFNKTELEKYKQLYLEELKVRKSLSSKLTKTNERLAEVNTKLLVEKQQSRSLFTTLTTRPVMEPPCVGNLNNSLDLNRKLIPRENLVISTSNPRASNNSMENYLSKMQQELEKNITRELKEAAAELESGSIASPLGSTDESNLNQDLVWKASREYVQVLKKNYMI

This is one part of the list. Most entries show no effect beyond the scatter of the controls.

Compound in this assay: Cc1nc(Nc2ncc(C(=O)Nc3c(C)cccc3Cl)s2)cc(N2CCN(CCO)CC2)n1 [dasatinib]
The assay can be described thus: log2 fold change of tryptic peptide abundance, ligand vs vehicle (limited proteolysis) (log2 ratio); higher = more trypsin-susceptible (destabilized). The following applies: ligand concentration: 5 uM; sample: K562 cleared lysate.
Take “SSR3 (peptide sequence: KLSEADNR, peptide start residue: 103) (UniProt Q9UNL2)”: the log2 fold change worked out at 0.000753.
The figure for “GGA1 (peptide sequence: MRPTLFR, peptide start residue: 259) (UniProt Q9UJY5)” is -0.137.
The figure for “ZNF391 (peptide sequence: IHGGEKPFECNK, peptide start residue: 130) (UniProt Q9UJN7)” is 0.77.
The figure for “VPS4A (peptide sequence: ATEEDKAK, peptide start residue: 16) (UniProt Q9UN37)” is 0.483; for “FBXO9 (peptide sequence: RAMQLVPDIEFK, peptide start residue: 119) (UniProt Q9UK97)” it is 0.304.
As to “UniProt Q9UPG8 (peptide sequence: KHPCDHCDRR, peptide start residue: 190)”, the log2 fold change is -0.972.
The figure for “AKAP8L (peptide sequence: TFYEDEMASHLDSK, peptide start residue: 398) (UniProt Q9ULX6)” is 0.255.
The figure for “PLAA (peptide sequence: TMNIYFPK, peptide start residue: 530) (UniProt Q9Y263)” is -0.241.
The figure for “BAZ2A (peptide sequence: NPMDFSTMR, peptide start residue: 1836) (UniProt Q9UIF9)” is 0.626; for “ANKRD26 (peptide sequence: EYASSGPALQMK, peptide start residue: 602) (UniProt Q9UPS8)” it is 0.41.
With “XPO7 (peptide sequence: VENYPEVIR, peptide start residue: 349) (UniProt Q9UIA9)”, the log2 fold change was 0.308.
